The list shows only some results of the screen, not a fair sample: it gathers tests that were run many times, whatever their T/C, doses with no T/C, and many T/C values between a quarter and a half above the control. Further doses and runs are listed elsewhere. T/C: endpoint of the treated group in % of that of the vehicle group. Schedules are NCI's codes, taken here to give the interval after Q, in days (D) or hours (H), and the number of doses after X. Some doses have a count of surviving animals in place of a T/C: the source holds a T/C of zero for them, seemingly a mark for toxic or unscored doses. Survivors were counted at the toxicity check, usually on the fifth day, unless a day is given; later deaths do not show. Some entries were tested several times; the results are listed from low to high.

The subject of the experiment is MX-1 breast xenograft, intrarenal, nude mice, tumor weight. In words: NCI In Vivo Anticancer Drug Screen. Data for tumor model Human Mammary Carcinoma MX-1 Xenograft (intrarenal inoculation) in NU/NU BALB/C (nude) mice. As to conditions: T/C endpoint: mean tumor weight change, higher T/C = larger tumour; for T/C: evaluated on day 11. The procedure, abridged:
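Efficacy in vivo: tumor measurement or survival of treated animals divided by that of vehicle-dosed controls.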

Setting [1] is: dose: 300.0 mg/kg/injection, schedule: Q04DX003 (ip), vehicle: Klucel (hydroxypropylcellulose) (HPC).
Setting [2] is: dose: 600.0 mg/kg/injection, schedule: Q04DX003 (ip), vehicle: Klucel (hydroxypropylcellulose) (HPC).
The mark [3] stands for this setting: dose: 1200.0 mg/kg/injection, schedule: Q04DX003 (ip), vehicle: Klucel (hydroxypropylcellulose) (HPC).
The mark [4] stands for this setting: dose: 150.0 mg/kg/injection, schedule: Q04DX003 (ip), vehicle: water.
The mark [5] stands for this setting: dose: 800.0 mg/kg/injection, schedule: Q04DX003 (ip), vehicle: saline with Tween-80.
[6] abbreviates: dose: 1200.0 mg/kg/injection, schedule: Q04DX003 (sc), vehicle: saline.

As to `CC1OC(O[C@H]2/C=C/C=C/C=C/C=C/C=C/C=C/C=C/[C@H](C)[C@@H](O)[C@@H](C)[C@H](C)OC(=O)C[C@H](O)C[C@H](O)CC[C@@H](O)[C@H](O)C[C@H](O)C[C@]3(O)C[C@H](O)[C@@H](C(=O)O)[C@H](C2)O3)C(O)C(N)C1O` (stereo not given in full), the T/C (dose: 50.0 mg/kg/injection, schedule: Q04DX003 (ip), vehicle: suspension in saline) is 131 % of control.

As to `CC1=C(C(N)=O)C(c2ccccc2)NC(=S)N1` (stereo not given), the survivor count under setting [1] is recorded as 3 of 6 on day 11, the survivor count under setting [2] was 1 of 6 on day 11 and the survivor count under setting [3] is recorded as 0 of 6 on day 11.

For the compound `Cn1cc(NC(=O)c2cc(NC(=O)c3cc(NC=O)cn3C)cn2C)cc1C(=O)NCCC(=N)N`, the survivor count runs as follows: (dose: 400.0 mg/kg/injection, schedule: Q04DX003 (ip), vehicle: water) 0 of 6 on day 11; (dose: 800.0 mg/kg/injection, schedule: Q04DX003 (ip), vehicle: water) 0 of 6 on day 11.

For the compound `CN(C)N=Nc1ccc(C(=O)O)cc1`, for the setting “dose: 800.0 mg/kg/injection, schedule: Q04DX003 (ip), vehicle: saline”, the survivor count is 0 of 6 on day 11.

Turning to `C/C=C/C=C\C=C/C(O)CC(OP(=O)(O)O)C(C)(O)/C=C/C1CC=CC(=O)O1` (stereo not given), for the setting “dose: 48.0 mg/kg/injection, schedule: Q04DX003 (ip), vehicle: water”, the survivor count was 2 of 6 on day 11.

With `NCCCN=c1ccc2c3c1c(O)c1c(O)ccc(=O)c1c3[nH]n2CCNCCO`, the survivor count is recorded as 0 of 6 on day 11 (dose: 75.0 mg/kg/injection, schedule: Q04DX003 (ip), vehicle: water) and 0 of 6 on day 11 under setting [4].

Take `N#CC(C#N)=C/C=C/c1cccc([N+](=O)[O-])c1`: the T/C reads like this: (dose: 100.0 mg/kg/injection, schedule: Q01DX010 (sc), vehicle: Klucel (hydroxypropylcellulose) (HPC)) 129 % of control; (dose: 800.0 mg/kg/injection, schedule: Q01DX010 (sc), vehicle: Klucel (hydroxypropylcellulose) (HPC)) 131 % of control.

As to `NC(=S)c1ncn(C2OC(COC=O)C(OC=O)C2OC=O)c1NC=O` (stereo not given), the survivor count (dose: 800.0 mg/kg/injection, schedule: Q04DX003 (ip), vehicle: Klucel (hydroxypropylcellulose) (HPC)) is recorded as 1 of 6 on day 11 and the survivor count under setting [5] is 1 of 6 on day 11.

As to `COc1cc(C2CC(C)(O)Oc3cc4c(cc32)OCO4)cc(OC)c1OC` (stereo not given), the survivor count (dose: 200.0 mg/kg/injection, schedule: Q04DX003 (ip), vehicle: saline with Tween-80) is reported as 2 of 6 on day 11; the survivor count (dose: 400.0 mg/kg/injection, schedule: Q04DX003 (ip), vehicle: saline with Tween-80) is reported as 2 of 6 on day 11; the survivor count under setting [5] was 1 of 6 on day 11.

`O=NNc1cccnc1`: for the setting “dose: 50.0 mg/kg/injection, schedule: Q04DX003 (ip), vehicle: water”, the T/C was 148 % of control. Moreover, the survivor count was 2 of 6 on day 11 and 3 of 6 on day 11 (dose: 100.0 mg/kg/injection, schedule: Q04DX003 (ip), vehicle: water); 0 of 6 on day 11 (dose: 200.0 mg/kg/injection, schedule: Q04DX003 (ip), vehicle: water).

On to `CN=S(=O)(OCCCCCOS(=O)(=NC)c1ccc(C)cc1)c1ccc(C)cc1` (stereo not given), for which the survivor count by setting is: (dose: 300.0 mg/kg/injection, schedule: Q04DX003 (sc), vehicle: saline with Tween-80) 2 of 6 on day 11; (dose: 600.0 mg/kg/injection, schedule: Q04DX003 (sc), vehicle: saline with Tween-80) 0 of 6 on day 11.

As for `CCC(=O)[O][Bi]([c]1ccccc1)[c]1ccccc1`, the survivor count is, setting by setting: (dose: 50.0 mg/kg/injection, schedule: Q04DX003 (ip), vehicle: Klucel (hydroxypropylcellulose) (HPC)) 0 of 6 on day 11; (dose: 100.0 mg/kg/injection, schedule: Q04DX003 (ip), vehicle: Klucel (hydroxypropylcellulose) (HPC)) 0 of 6 on day 11; (dose: 150.0 mg/kg/injection, schedule: Q04DX003 (ip), vehicle: Klucel (hydroxypropylcellulose) (HPC)) 0 of 6 on day 11; under setting [1], 0 of 6 on day 11; under setting [2], 0 of 6 on day 11; under setting [3], 0 of 6 on day 11.

With `N#CC(=C1SCS1)[N+](=O)[O-]`, the T/C (dose: 24.0 mg/kg/injection, schedule: Q04DX003 (sc), vehicle: saline with Tween-80) is 137 % of control and the T/C (dose: 48.0 mg/kg/injection, schedule: Q04DX003 (sc), vehicle: saline with Tween-80) is 130 % of control. Also, the survivor count is given as 3 of 6 on day 11 (dose: 96.0 mg/kg/injection, schedule: Q04DX003 (sc), vehicle: saline with Tween-80) and 0 of 6 on day 11 (dose: 192.0 mg/kg/injection, schedule: Q04DX003 (sc), vehicle: saline with Tween-80).

For the compound `O=S(=O)(CCl)OCCCl`, under “dose: 200.0 mg/kg/injection, schedule: Q04DX003 (sc), vehicle: saline with Tween-80”, the survivor count is on record as 0 of 6 on day 11.

As to `Nc1nc([Se]c2nc(N)nc3c2ncn3C2OC(CO)C(O)C2O)c2ncn(C3OC(CO)C(O)C3O)c2n1` (stereo not given), where the note is “dose: 800.0 mg/kg/injection, schedule: Q04DX003 (ip), vehicle: distilled water + Tween-80”, the survivor count is 2 of 6 on day 11.

For `CCC1OC(OC)C=CC1=O` (stereo not given), the survivor count (dose: 150.0 mg/kg/injection, schedule: Q04DX003 (sc), vehicle: saline) is listed as 0 of 6 on day 11.

Turning to `O=C1CN(CCN2CC(=O)N(CN3CCOCC3)C(=O)C2)CC(=O)N1CN1CCOCC1`, the survivor count by setting is: (dose: 600.0 mg/kg/injection, schedule: Q04DX003 (ip), vehicle: water) 0 of 6 on day 11; (dose: 1200.0 mg/kg/injection, schedule: Q04DX003 (ip), vehicle: water) 0 of 6 on day 11.

Turning to `CCn1cnc2c(=S)nc[nH]c21`, the survivor count (dose: 600.0 mg/kg/injection, schedule: Q04DX003 (sc), vehicle: saline) is recorded as 1 of 6 on day 11 and the survivor count under setting [6] is listed as 0 of 6 on day 11.

For `CNC(=O)Oc1ccc(S(=O)(=O)c2ccc(OC(=O)NC)cc2)cc1`, the T/C (dose: 75.0 mg/kg/injection, schedule: Q04DX003 (ip), vehicle: saline with Tween-80) was 131 % of control.

For `O=C1N[C@H]2[C@H](CS[C@H]2CCCCC(=O)N(CCP(c2ccccc2)c2ccccc2)CCP(c2ccccc2)c2ccccc2)N1`, for the setting “dose: 300.0 mg/kg/injection, schedule: Q04DX003 (sc), vehicle: Klucel (hydroxypropylcellulose) (HPC)”, the T/C is 146 % of control.

Regarding `O=C(Nc1ccccc1)c1c(O)[nH]c(=O)[nH]c1=O`, under setting [5], the survivor count is 0 of 6 on day 11.

On to `C=Cc1cc(OC)c2c(c1)c(=O)oc1c2cc(OC)c2c(O)ccc(C3OC(C(C)O)C(O)C3O)c21` (stereo not given), for which the survivor count under setting [1] is 1 of 6 on day 11; the survivor count (dose: 450.0 mg/kg/injection, schedule: Q04DX003 (ip), vehicle: Klucel (hydroxypropylcellulose) (HPC)) is 3 of 6 on day 11; the survivor count under setting [2] was 1 of 6 on day 11; the survivor count under setting [3] is 0 of 6 on day 11.

For `c1ccc2c3c(c4c(c2c1)CN(C1CCCCC1)CO4)OCN(C1CCCCC1)C3`, where the note is “dose: 37.5 mg/kg/injection, schedule: Q04DX003 (ip), vehicle: water”, the T/C is 137 % of control. Besides, the survivor count under setting [4] is 2 of 6 on day 11 and the survivor count (dose: 300.0 mg/kg/injection, schedule: Q04DX003 (ip), vehicle: water) is 1 of 6 on day 11.

For the compound `CC1(C)OCC2OC=CC(=O)C2O1` (stereo not given), under setting [6], the survivor count was 0 of 6 on day 11.

As for `[Cl][Hg][Cl]`, where the note is “dose: 2.5 mg/kg/injection, schedule: Q04DX003 (ip), vehicle: saline”, the T/C was 126 % of control. Moreover, the survivor count is given as 0 of 6 on day 11 (dose: 10.0 mg/kg/injection, schedule: Q04DX003 (ip), vehicle: saline) and 0 of 6 on day 11 (dose: 20.0 mg/kg/injection, schedule: Q04DX003 (ip), vehicle: saline).

Take `C=CC(=O)N1CN(C(=O)C=C)CN(C(=O)C=C)C1`: the survivor count runs as follows: (dose: 25.0 mg/kg/injection, schedule: Q01DX010 (sc), vehicle: saline with Tween-80) 0 of 3 on day 11; (dose: 50.0 mg/kg/injection, schedule: Q01DX010 (sc), vehicle: saline with Tween-80) 0 of 3 on day 11.

The values above are taken from PubChem BioAssay AID298 (DTP/NCI, 2004).
